Results are given in words; binding and its absence hold for the method and conditions named. Binding seen in cells or lysates may run through a third protein. Some entries that bind do so weakly or less than the wild type.
How the values were obtained:
[1] = molecular target: endogenous IkBα (in cultured cells) (UniProt P25963); assay: co-immunoprecipitation of endogenous proteins: FIH IP, anti-IkBα immunoblot
[2] = molecular target: endogenous p105 protein (in cultured cells) (UniProt P19838); assay: co-immunoprecipitation from HeLa cell lysate: anti-p105 IP, anti-FIH immunoblot
[3] = molecular target: endogenous p105 protein (in cultured cells) (UniProt P19838); assay: co-immunoprecipitation of endogenous proteins: anti-p105 IP, anti-FIH immunoblot

By UniProt entry, the sequences of proteins in these tests, tags left out. Where a name states a change or a piece, a line headed by the entry shows the natural chain unless it says otherwise.
UniProt P25963: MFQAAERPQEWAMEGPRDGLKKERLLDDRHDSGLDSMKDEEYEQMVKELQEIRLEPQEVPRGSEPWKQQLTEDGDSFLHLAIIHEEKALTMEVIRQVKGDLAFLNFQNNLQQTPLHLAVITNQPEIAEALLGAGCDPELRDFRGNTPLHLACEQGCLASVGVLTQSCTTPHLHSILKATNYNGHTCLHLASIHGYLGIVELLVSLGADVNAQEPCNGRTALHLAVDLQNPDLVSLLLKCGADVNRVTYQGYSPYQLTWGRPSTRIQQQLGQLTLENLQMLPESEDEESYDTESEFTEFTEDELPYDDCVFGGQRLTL
UniProt P19838: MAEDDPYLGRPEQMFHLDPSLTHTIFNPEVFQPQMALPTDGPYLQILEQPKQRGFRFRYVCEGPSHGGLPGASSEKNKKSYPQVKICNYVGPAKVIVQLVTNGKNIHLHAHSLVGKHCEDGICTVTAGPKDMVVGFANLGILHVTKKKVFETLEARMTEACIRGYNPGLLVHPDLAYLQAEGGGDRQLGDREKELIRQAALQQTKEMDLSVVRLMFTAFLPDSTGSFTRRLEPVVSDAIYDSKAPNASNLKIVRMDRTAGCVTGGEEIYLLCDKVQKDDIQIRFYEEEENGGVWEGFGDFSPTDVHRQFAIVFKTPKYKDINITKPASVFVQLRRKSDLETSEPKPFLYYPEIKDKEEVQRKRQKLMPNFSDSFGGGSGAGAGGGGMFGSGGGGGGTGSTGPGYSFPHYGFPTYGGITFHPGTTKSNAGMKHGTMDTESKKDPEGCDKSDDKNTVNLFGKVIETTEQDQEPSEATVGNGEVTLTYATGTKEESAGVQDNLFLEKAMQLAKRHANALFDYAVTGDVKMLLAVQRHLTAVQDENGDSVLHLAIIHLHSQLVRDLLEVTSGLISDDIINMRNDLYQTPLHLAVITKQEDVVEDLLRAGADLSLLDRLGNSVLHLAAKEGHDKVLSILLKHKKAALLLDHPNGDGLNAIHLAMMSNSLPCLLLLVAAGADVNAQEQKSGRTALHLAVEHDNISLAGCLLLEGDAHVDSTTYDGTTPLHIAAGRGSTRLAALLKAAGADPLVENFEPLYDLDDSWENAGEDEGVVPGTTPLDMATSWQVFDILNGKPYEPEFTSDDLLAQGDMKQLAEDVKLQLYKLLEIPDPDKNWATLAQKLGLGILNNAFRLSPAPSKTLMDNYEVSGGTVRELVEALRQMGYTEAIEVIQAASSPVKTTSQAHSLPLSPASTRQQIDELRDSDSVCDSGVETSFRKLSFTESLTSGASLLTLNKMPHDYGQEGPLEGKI
UniProt Q9NWT6: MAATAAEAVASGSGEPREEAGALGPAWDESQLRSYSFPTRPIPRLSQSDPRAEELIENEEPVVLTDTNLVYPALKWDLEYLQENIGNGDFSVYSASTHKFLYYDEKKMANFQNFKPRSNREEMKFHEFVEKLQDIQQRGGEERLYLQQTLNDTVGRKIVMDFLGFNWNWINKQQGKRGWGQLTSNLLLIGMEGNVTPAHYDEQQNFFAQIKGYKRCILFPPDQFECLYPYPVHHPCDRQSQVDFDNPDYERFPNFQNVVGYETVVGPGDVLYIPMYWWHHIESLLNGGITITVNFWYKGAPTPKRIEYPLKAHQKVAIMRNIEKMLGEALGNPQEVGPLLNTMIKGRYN

Measured: binding

endogenous FIH (in cultured cells) (from UniProt Q9NWT6 2-349) (enzyme)
binds: all assays above

From US20080227848A1
